# Test results taken from PMC7827474, “DnaJ Proteins Regulate WUS Expression in Shoot Apical Meristem of Arabidopsis”.
# Sequences of proteins named here, by UniProt entry; tags and fusion partners are left off. A change or cut given only in a name is not applied to a line headed by its entry.
# UniProt Q9LXB9: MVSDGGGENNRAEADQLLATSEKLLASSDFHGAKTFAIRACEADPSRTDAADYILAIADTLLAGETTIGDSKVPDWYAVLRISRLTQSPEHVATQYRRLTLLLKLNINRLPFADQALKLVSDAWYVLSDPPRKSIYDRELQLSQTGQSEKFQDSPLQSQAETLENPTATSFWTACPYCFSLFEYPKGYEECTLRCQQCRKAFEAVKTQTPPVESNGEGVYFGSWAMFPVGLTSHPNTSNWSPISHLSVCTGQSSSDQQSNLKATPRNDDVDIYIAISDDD
# UniProt Q9T061: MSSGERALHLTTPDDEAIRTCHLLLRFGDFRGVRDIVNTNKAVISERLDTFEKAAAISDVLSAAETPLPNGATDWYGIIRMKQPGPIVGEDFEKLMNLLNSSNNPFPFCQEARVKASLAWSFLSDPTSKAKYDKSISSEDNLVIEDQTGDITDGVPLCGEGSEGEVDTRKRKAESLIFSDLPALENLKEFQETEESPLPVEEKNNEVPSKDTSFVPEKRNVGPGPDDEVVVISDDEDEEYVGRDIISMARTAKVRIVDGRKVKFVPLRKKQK
# Results are given in words; binding and its absence hold for the method and conditions named. A result given as binding can be weak or reduced; the word gives no strength. For some assays here: In cells and extracts the contact can be indirect.
# Key:
# MBP:WUS = target: T1, MBP:WUS (Arabidopsis thaliana, UniProt Q9SB92 1-292); test: native gel or EMSA; MBP:WUS and MBP:SDJ1/SDJ3/At5g09540 with Texas Red-labelled WUS promoter probe (TAAT motif); 10 mM HEPES pH 7.8, 20 mM KCl, 1 mM MgCl2, 22 °C, 30 min; 8% polyacrylamide gel; both purified
# T1 sequence: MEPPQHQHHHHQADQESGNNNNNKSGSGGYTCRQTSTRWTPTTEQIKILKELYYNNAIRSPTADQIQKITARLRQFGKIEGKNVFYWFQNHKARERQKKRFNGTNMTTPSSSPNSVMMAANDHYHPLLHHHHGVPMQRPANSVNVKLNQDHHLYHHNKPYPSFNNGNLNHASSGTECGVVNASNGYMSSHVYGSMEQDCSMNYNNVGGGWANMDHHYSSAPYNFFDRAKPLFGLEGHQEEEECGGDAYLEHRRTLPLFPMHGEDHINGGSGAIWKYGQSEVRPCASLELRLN
# WUS-YFPn (Arabidopsis) = WUS-YFPn (Arabidopsis) (UniProt Q9SB92); test: split reporter; BiFC with YFPn and YFPc fusions in Nicotiana benthamiana leaf epidermal cells, Agrobacterium infiltration, with Coilin:RFP as nuclear marker; confocal microscopy
binding (MBP:WUS),binding (WUS-YFPn (Arabidopsis)),Substance
binds,–,MBP-At5g09540 (from UniProt Q9LXB9)
–,binds,At4g11930-YFPc (from UniProt Q9T061)
